Test results reported in the supplement of paper PMC10849652.
The list shows a part of the results. Residues, ends and D or L forms follow the SMILES beside them. *: point of attachment. Cbz = O=C(OCc1ccccc1)*

The chains behind the UniProt entries cited, without tags or fusion partners. Where a name states a change or a piece, a line headed by the entry shows the natural chain unless it says otherwise.
UniProt O75582, whole entry, looked up: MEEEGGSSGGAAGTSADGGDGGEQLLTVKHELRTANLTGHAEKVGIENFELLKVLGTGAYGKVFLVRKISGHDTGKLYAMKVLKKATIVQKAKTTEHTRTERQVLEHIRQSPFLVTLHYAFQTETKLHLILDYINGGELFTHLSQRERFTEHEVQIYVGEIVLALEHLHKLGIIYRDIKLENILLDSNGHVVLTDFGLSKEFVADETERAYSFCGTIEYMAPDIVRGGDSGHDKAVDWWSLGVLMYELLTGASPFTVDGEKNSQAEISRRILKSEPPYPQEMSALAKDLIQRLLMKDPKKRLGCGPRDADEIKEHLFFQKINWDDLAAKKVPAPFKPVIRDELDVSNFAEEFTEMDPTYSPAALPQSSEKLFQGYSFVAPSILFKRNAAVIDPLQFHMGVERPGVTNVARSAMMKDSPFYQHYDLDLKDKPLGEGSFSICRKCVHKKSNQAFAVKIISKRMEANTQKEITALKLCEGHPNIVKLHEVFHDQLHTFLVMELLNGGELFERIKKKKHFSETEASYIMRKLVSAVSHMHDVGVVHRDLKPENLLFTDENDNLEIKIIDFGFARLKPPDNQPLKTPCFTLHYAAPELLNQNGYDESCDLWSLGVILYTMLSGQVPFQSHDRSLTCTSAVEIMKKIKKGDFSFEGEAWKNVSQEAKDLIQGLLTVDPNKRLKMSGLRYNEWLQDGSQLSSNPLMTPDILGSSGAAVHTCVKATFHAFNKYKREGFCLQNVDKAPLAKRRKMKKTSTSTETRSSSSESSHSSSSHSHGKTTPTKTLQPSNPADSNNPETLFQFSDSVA
UniProt P78317: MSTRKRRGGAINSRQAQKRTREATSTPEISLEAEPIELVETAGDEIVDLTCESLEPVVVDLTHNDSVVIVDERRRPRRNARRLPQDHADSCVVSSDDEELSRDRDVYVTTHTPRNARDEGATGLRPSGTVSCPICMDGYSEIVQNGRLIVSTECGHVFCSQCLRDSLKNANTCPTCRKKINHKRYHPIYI
UniProt P60602: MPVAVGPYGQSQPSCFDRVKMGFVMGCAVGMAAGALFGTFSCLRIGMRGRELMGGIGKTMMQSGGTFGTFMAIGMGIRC
UniProt Q8IXW5, whole entry, looked up: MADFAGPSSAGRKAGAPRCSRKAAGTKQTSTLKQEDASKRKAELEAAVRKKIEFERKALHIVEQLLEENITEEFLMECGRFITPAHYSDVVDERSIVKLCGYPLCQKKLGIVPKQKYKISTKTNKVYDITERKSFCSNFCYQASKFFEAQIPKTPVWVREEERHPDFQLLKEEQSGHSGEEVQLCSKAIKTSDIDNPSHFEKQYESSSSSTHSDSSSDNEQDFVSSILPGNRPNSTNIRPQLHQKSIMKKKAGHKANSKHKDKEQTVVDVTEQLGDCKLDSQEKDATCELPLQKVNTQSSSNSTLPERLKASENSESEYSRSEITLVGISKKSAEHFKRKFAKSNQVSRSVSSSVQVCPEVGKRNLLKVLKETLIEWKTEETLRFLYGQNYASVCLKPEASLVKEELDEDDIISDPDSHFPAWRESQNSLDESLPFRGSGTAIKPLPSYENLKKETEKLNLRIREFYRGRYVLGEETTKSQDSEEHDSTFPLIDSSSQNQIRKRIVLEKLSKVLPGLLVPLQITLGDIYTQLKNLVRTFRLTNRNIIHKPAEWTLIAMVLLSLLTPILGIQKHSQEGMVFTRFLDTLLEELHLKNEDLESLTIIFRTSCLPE
UniProt Q92766: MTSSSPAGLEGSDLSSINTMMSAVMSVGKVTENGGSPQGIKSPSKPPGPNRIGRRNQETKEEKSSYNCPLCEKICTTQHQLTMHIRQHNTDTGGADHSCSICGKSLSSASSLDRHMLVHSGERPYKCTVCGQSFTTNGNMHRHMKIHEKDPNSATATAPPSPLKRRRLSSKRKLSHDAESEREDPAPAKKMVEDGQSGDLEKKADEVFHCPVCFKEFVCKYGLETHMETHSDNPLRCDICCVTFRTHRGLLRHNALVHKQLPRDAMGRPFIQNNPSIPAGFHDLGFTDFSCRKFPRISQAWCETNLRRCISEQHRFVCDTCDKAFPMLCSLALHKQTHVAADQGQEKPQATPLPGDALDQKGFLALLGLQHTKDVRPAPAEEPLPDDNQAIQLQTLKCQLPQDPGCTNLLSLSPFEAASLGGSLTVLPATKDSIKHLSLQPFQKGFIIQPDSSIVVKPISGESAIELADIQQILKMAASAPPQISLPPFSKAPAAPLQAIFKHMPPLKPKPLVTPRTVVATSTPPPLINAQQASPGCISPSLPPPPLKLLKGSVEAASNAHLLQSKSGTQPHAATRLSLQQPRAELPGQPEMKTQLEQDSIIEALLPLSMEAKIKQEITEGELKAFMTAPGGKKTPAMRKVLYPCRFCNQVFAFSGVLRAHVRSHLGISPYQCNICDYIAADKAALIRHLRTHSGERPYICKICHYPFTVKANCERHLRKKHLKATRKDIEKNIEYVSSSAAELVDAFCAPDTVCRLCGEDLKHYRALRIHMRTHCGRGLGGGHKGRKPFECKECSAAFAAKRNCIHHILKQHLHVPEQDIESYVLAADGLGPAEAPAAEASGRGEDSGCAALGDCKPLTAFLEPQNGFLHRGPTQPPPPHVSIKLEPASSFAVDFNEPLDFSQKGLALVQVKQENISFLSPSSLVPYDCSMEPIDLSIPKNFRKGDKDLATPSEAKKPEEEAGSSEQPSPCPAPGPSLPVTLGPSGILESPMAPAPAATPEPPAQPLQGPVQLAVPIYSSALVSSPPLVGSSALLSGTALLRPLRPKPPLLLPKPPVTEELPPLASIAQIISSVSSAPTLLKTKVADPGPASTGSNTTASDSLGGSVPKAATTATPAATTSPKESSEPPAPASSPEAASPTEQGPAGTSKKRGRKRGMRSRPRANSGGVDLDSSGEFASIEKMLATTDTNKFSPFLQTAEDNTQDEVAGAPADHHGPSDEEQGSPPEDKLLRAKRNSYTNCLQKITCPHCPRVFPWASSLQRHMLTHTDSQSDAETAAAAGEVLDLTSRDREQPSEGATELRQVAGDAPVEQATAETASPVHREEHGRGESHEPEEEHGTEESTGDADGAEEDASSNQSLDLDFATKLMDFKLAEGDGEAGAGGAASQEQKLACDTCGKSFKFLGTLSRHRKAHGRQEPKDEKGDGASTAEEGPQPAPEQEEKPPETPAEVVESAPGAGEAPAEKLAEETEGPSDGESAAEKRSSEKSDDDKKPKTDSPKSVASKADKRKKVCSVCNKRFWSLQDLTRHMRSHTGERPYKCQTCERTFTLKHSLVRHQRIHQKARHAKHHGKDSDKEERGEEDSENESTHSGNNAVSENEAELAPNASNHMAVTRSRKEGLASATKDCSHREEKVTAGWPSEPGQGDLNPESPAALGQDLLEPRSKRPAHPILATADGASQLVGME
UniProt Q9GZN7, whole entry, looked up: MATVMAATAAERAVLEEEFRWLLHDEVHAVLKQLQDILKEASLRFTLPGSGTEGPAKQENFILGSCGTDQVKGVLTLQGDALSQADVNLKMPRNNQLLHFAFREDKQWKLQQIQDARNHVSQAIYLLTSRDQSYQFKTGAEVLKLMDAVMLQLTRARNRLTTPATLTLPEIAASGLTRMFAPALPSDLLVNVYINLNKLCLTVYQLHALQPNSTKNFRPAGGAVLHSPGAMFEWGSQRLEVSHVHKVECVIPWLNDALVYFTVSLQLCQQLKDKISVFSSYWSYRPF
UniProt Q9UBS0: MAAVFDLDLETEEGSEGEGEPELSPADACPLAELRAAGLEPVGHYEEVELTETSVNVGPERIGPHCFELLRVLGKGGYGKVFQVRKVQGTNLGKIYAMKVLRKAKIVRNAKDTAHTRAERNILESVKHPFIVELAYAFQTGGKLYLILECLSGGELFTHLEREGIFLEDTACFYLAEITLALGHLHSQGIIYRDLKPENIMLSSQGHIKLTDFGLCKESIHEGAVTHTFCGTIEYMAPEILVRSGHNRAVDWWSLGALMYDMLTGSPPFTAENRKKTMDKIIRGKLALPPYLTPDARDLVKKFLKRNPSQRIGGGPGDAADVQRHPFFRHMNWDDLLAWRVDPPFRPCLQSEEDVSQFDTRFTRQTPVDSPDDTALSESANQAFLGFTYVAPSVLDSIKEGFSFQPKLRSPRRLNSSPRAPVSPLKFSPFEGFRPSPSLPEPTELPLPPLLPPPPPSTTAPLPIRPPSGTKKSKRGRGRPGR
UniProt Q86UA6: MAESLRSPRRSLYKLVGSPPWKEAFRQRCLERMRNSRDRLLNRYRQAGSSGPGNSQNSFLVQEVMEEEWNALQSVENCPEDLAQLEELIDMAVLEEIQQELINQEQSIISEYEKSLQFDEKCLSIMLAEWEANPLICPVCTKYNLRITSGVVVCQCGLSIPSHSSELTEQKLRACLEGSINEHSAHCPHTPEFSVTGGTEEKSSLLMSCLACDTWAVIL
UniProt Q9NYV6: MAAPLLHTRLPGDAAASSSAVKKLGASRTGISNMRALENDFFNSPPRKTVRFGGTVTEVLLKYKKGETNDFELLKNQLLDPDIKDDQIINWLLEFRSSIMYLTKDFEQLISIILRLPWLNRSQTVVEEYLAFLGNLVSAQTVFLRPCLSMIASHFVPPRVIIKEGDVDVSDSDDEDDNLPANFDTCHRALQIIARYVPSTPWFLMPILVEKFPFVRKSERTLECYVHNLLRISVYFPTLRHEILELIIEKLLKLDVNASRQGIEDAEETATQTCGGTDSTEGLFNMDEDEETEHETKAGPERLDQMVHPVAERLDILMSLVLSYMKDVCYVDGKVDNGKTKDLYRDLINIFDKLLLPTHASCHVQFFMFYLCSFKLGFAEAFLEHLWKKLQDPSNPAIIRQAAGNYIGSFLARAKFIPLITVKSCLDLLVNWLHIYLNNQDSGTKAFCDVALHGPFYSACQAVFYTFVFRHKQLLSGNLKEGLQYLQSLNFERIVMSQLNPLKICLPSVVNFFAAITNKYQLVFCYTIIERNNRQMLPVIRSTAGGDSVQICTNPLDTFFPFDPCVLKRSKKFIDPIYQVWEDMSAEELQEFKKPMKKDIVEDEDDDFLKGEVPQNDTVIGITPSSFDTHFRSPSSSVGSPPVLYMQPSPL
UniProt Q92834: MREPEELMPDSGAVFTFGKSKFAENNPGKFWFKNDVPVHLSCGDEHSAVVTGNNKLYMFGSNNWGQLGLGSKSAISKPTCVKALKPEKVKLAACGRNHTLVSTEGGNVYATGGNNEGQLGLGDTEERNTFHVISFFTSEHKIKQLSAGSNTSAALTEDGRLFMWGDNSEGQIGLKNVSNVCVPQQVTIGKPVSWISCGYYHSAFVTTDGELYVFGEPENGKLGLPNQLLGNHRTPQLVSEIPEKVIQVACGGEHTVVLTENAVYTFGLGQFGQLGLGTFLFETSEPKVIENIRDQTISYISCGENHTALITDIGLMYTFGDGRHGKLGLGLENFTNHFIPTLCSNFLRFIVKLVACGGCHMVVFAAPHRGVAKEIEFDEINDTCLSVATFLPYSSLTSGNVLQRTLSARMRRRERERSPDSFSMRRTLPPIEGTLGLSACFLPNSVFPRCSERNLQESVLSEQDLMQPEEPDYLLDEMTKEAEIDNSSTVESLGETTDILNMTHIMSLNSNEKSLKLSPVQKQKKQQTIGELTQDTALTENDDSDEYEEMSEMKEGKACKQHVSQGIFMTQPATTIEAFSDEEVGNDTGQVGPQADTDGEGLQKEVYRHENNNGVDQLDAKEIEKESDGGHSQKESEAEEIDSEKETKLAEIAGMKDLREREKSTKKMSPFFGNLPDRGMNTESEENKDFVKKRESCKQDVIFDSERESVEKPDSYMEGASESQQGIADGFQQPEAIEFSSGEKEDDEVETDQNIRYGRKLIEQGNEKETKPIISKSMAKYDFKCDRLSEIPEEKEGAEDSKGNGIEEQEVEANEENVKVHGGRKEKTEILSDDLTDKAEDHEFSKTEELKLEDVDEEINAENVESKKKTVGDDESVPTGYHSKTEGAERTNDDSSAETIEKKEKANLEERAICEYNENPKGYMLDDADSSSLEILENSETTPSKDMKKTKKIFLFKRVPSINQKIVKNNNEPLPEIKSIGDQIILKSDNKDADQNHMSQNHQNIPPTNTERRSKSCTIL
UniProt Q9BY78: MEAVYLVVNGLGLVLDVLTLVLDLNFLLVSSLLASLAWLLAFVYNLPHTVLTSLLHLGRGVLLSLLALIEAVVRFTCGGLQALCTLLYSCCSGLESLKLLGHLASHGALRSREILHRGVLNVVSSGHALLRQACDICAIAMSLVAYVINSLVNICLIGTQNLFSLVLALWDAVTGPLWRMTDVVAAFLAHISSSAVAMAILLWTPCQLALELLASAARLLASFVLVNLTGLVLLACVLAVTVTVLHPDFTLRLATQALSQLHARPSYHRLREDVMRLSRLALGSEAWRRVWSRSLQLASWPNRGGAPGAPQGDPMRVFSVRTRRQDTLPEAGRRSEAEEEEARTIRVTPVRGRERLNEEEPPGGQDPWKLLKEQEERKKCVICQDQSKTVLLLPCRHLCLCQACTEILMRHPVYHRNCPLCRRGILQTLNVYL

Experiments:
Assay in all cases: log2 fold change, soluble protein after heating vs DMSO (PISA); higher = thermal stabilisation; K562 cells, 10 uM, 30 min; active = over 0.2 and 3.5 SD of the protein, either way, in both replicates (recomputed)
IRAK-1-4 Inhibitor I = compound: C1COCCN1CCN2C3=CC=CC=C3N=C2NC(=O)C4=CC(=CC=C4)[N+](=O)[O-] [IRAK-1-4 Inhibitor I]
In short: (§1)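 K562 cells at 2×10^6 cells/mL were exposed to 10 μM compound for 30 min, then aliquots were heated for 3 min across 48°C-58°C, pooled, and extracted in PBS containing 0.5% NP-40 at 4°C. The supernatant after 21,000xg for 90 min was taken as soluble protein and measured by TMTpro 16plex LC-MS/MS with channel sums equalised. Thermal stability is reported relative to control samples, with values from duplicates. Fold changes are given on a log2 scale.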

ralimetinib = compound: CC(C)(C)Cn1c(N)nc2ccc(-c3[nH]c(C(C)(C)C)nc3-c3ccc(F)cc3)nc21 [ralimetinib]
In short: as §1

[1] = compound: CC(C)(O)CC(=O)NCCn1ccc2ncnc(Nc3ccc(Oc4cccc(C(F)(F)F)c4)c(Cl)c3)c21
In short: as §1

[2] = compound: CC(C)C1=C2N=C(C=C(N2N=C1)NCC3=CC=CC=C3)NCCCCCCN
In short: as §1

[3] = compound: CC(C)C[C@@H](C=O)NC(=O)[C@H](CC(C)C)NC(=O)[C@H](CC(C)C)NC(=O)OCc1ccccc1
In short: as §1

pinometostat = compound: CC(C)N(C[C@H]1O[C@@H](n2cnc3c(N)ncnc32)[C@H](O)[C@@H]1O)[C@H]1C[C@@H](CCc2nc3cc(C(C)(C)C)ccc3[nH]2)C1 [pinometostat]
In short: as §1

ibrutinib = compound: C=CC(=O)N1CCC[C@@H](n2nc(-c3ccc(Oc4ccccc4)cc3)c3c(N)ncnc32)C1 [ibrutinib]
In short: as §1

[4] = compound: CC(=O)c1cnc2ccc(-c3cc(Cl)c(O)c(Cl)c3)nc2c1N[C@H]1CC[C@H](CN(C)C)CC1
In short: as §1

[5] = compound: CC1=C(C2=C(C=C1)C(=O)C3=CC=CC=C3N2CCCN)C
In short: as §1

[6] = compound: CC1=C(C(CC(=O)N1)C2=CC=C(C=C2)C(F)(F)F)C(=O)NC3=C(C=C4C(=C3)C=NN4)F
In short: as §1

Row | Target | log2 fold change (IRAK-1-4 Inhibitor I) | log2 fold change (ralimetinib) | log2 fold change [1] | log2 fold change [2] | log2 fold change [3] | log2 fold change (pinometostat) | log2 fold change (ibrutinib) | log2 fold change [4] | log2 fold change [5] | log2 fold change [6]
1 | RPS6KA5 (UniProt O75582) | inactive: 0.071 | inactive: -0.11 | inactive: -0.042 | inactive: -0.218 | inactive: 0.069 | inactive: -0.431 | – | – | – | –
2 | RPL22L1 (UniProt Q6P5R6) | inactive: 0.052 | – | inactive: 0.381 | inactive: -0.202 | – | inactive: 0.009 | – | – | – | –
3 | RPS21 (UniProt P63220) | inactive: -0.004 | inactive: -0.014 | inactive: 0.069 | inactive: 0.056 | inactive: 0.075 | inactive: -0.022 | inactive: -0.035 | inactive: 0.055 | inactive: -0.02 | –
4 | RNF4 (UniProt P78317) | – | – | inactive: -0.037 | inactive: -0.14 | – | – | inactive: 0.002 | inactive: 0.077 | inactive: -0.379 | inactive: 0.087
5 | RPL37 (UniProt P61927) | inactive: -0.221 | inactive: 0.119 | – | inactive: 0.013 | inactive: 0.102 | inactive: 0.346 | inactive: -0.157 | inactive: 0.159 | inactive: -0.634 | inactive: 0.102
6 | ROMO1 (UniProt P60602) | – | inactive: -0.024 | inactive: 0.052 | inactive: -0.051 | inactive: -0.083 | – | inactive: 0.069 | inactive: -0.044 | inactive: -0.077 | –
7 | RPS7, A0A2R8Y623 | inactive: -0.342 | inactive: 0.19 | – | inactive: 0.048 | inactive: -0.19 | inactive: -0.108 | inactive: 0.263 | inactive: -0.015 | inactive: 0.79 | inactive: -0.385
8 | RPLP0 (UniProt F8VWV4) | inactive: -0.012 | – | inactive: 0.092 | – | – | inactive: 0.153 | – | inactive: -0.112 | inactive: -0.136 | –
9 | RPS3 (UniProt E9PJN9) | – | inactive: 0.228 | – | – | inactive: 0.134 | – | – | – | inactive: -0.126 | –
10 | RPAP2 (UniProt Q8IXW5) | inactive: -0.154 | inactive: 0.107 | inactive: -0.117 | inactive: -0.022 | inactive: 0.1 | inactive: 0.241 | – | inactive: -0.123 | inactive: -0.023 | –
11 | RPTOR (UniProt Q8N122) | inactive: 0 | inactive: -0.022 | inactive: -0.129 | inactive: -0.187 | inactive: -0.011 | inactive: -0.012 | inactive: 0.051 | inactive: -0.145 | inactive: 0.009 | –
12 | RREB1 isoform 2 (UniProt Q92766) | inactive: -0.107 | inactive: 0.027 | inactive: -0.141 | inactive: 0.002 | inactive: 0 | inactive: -0.037 | inactive: -0.11 | – | inactive: -0.222 | –
13 | ROGDI (UniProt Q9GZN7) | – | inactive: 0.066 | – | – | inactive: 0.121 | – | – | – | – | –
14 | RPS6KB2 (UniProt Q9UBS0) | inactive: -0.044 | – | inactive: -0.124 | inactive: 0.331 | – | inactive: 0.106 | – | – | inactive: 0.299 | –
15 | RPAIN isoform 8 (UniProt Q86UA6) | inactive: -0.022 | inactive: -0.048 | inactive: 0.048 | – | inactive: -0.221 | inactive: 0.011 | inactive: 0.034 | inactive: -0.124 | inactive: -0.168 | –
16 | RPS19 (UniProt P39019) | inactive: -0.085 | inactive: 0.064 | inactive: 0.03 | inactive: -0.025 | inactive: 0.039 | inactive: 0.084 | inactive: 0.052 | inactive: 0.05 | active: -0.523 | –
17 | RRN3 (UniProt Q9NYV6) | inactive: -0.037 | – | inactive: -0.218 | inactive: 0.044 | – | inactive: 0.007 | – | – | – | –
18 | RPGR (UniProt Q92834) | – | – | inactive: -0.117 | – | – | – | – | – | inactive: 0.113 | –
19 | RNF26 (UniProt Q9BY78) | – | inactive: 0.095 | – | – | inactive: 0.281 | – | inactive: -0.033 | – | – | –

Shown with tabs: entries from further up
Row	Target	log2 fold change (IRAK-1-4 Inhibitor I)	log2 fold change (ralimetinib)	log2 fold change [1]	log2 fold change [2]	log2 fold change [3]	log2 fold change (pinometostat)	log2 fold change (ibrutinib)	log2 fold change [4]	log2 fold change [5]	log2 fold change [6]
1	RPS6KA5 (UniProt O75582)	inactive: 0.071	inactive: -0.11	inactive: -0.042	inactive: -0.218	inactive: 0.069	inactive: -0.431	–	–	–	–
2	RPL22L1 (UniProt Q6P5R6)	inactive: 0.052	–	inactive: 0.381	inactive: -0.202	–	inactive: 0.009	–	–	–	–
